log2 fold change data for 13 targets are collected here from the supplement of paper PMC10849652.

Chains of the proteins cited; added tags and fusions are not shown. Lines headed by an entry give the natural chain unless they say otherwise; changes in a name come on top.
UniProt Q14165: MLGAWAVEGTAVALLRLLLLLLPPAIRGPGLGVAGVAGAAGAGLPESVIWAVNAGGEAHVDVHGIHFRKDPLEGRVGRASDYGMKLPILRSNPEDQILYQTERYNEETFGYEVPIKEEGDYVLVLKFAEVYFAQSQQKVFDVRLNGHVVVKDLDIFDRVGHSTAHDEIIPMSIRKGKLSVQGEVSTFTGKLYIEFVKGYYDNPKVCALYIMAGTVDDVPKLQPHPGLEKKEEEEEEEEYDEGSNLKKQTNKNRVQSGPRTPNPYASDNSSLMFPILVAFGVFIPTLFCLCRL
UniProt Q9BU76: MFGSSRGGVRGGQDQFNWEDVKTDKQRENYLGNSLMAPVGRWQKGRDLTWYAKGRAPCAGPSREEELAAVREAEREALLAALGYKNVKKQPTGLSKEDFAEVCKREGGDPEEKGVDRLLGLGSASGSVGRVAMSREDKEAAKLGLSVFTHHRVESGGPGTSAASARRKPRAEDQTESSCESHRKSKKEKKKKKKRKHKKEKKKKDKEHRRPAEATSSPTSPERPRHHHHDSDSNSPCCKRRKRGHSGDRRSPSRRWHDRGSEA
UniProt O75970: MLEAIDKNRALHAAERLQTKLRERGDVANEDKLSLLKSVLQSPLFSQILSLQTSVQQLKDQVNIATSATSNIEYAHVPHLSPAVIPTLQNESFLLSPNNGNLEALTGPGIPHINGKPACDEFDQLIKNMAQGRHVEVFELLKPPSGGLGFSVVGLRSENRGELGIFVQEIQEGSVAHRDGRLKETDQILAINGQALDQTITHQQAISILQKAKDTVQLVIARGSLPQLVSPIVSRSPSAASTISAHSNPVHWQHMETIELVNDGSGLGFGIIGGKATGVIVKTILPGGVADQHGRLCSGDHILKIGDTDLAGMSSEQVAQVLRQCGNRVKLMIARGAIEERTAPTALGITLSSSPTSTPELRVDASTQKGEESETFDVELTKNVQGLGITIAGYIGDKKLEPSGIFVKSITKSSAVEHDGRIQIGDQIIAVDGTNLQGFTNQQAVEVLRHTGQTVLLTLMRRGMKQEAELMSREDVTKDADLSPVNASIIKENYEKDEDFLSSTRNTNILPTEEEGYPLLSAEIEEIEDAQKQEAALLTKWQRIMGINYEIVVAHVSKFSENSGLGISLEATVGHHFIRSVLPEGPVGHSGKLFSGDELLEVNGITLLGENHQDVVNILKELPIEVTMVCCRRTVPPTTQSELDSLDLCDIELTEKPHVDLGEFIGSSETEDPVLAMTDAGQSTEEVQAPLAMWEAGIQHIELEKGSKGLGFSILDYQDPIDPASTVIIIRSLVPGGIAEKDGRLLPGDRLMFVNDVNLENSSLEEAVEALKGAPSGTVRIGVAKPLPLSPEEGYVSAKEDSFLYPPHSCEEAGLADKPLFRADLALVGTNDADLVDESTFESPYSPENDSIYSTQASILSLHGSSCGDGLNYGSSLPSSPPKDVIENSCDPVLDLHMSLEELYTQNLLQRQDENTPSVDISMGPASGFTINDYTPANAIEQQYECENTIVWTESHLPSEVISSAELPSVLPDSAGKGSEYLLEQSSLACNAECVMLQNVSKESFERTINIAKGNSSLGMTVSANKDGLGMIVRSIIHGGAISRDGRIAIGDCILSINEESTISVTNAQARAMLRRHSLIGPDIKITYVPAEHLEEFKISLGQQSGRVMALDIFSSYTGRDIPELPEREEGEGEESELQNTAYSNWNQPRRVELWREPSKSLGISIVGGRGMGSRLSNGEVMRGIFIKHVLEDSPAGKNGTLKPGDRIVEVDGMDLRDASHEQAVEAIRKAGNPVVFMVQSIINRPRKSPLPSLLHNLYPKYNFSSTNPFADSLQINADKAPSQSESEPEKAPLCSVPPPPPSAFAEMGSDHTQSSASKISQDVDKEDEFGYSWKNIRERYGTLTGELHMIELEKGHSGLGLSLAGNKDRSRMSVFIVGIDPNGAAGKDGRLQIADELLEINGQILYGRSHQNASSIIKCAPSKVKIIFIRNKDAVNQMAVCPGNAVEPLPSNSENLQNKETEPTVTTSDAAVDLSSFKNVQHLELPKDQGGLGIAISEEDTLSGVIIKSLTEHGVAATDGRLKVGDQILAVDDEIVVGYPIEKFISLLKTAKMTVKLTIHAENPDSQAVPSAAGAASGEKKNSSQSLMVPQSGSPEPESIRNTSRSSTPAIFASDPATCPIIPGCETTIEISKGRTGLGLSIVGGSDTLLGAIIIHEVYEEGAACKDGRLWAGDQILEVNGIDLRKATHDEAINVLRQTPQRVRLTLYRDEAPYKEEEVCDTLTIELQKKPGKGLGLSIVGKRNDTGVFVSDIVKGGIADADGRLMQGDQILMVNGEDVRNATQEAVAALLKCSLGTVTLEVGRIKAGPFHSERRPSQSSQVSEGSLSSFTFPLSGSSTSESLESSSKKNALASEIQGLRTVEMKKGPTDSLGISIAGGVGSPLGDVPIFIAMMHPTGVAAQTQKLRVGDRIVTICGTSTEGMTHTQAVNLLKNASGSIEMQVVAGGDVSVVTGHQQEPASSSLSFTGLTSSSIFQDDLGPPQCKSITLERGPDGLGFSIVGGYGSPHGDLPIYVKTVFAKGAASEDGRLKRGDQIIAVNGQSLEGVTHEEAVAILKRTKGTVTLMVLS
UniProt Q00013: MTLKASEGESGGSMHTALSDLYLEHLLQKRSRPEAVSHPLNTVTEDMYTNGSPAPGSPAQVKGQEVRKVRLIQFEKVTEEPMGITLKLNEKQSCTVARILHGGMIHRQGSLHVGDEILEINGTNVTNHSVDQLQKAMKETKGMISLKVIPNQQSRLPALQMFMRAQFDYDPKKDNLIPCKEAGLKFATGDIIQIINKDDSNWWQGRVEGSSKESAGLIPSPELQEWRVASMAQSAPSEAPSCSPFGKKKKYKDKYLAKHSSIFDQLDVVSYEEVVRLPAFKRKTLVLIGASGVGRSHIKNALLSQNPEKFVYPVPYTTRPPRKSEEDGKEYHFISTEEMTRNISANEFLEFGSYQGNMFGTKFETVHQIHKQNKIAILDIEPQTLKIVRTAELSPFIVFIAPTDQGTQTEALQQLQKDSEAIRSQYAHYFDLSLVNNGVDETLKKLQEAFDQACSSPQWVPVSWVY
UniProt P46013: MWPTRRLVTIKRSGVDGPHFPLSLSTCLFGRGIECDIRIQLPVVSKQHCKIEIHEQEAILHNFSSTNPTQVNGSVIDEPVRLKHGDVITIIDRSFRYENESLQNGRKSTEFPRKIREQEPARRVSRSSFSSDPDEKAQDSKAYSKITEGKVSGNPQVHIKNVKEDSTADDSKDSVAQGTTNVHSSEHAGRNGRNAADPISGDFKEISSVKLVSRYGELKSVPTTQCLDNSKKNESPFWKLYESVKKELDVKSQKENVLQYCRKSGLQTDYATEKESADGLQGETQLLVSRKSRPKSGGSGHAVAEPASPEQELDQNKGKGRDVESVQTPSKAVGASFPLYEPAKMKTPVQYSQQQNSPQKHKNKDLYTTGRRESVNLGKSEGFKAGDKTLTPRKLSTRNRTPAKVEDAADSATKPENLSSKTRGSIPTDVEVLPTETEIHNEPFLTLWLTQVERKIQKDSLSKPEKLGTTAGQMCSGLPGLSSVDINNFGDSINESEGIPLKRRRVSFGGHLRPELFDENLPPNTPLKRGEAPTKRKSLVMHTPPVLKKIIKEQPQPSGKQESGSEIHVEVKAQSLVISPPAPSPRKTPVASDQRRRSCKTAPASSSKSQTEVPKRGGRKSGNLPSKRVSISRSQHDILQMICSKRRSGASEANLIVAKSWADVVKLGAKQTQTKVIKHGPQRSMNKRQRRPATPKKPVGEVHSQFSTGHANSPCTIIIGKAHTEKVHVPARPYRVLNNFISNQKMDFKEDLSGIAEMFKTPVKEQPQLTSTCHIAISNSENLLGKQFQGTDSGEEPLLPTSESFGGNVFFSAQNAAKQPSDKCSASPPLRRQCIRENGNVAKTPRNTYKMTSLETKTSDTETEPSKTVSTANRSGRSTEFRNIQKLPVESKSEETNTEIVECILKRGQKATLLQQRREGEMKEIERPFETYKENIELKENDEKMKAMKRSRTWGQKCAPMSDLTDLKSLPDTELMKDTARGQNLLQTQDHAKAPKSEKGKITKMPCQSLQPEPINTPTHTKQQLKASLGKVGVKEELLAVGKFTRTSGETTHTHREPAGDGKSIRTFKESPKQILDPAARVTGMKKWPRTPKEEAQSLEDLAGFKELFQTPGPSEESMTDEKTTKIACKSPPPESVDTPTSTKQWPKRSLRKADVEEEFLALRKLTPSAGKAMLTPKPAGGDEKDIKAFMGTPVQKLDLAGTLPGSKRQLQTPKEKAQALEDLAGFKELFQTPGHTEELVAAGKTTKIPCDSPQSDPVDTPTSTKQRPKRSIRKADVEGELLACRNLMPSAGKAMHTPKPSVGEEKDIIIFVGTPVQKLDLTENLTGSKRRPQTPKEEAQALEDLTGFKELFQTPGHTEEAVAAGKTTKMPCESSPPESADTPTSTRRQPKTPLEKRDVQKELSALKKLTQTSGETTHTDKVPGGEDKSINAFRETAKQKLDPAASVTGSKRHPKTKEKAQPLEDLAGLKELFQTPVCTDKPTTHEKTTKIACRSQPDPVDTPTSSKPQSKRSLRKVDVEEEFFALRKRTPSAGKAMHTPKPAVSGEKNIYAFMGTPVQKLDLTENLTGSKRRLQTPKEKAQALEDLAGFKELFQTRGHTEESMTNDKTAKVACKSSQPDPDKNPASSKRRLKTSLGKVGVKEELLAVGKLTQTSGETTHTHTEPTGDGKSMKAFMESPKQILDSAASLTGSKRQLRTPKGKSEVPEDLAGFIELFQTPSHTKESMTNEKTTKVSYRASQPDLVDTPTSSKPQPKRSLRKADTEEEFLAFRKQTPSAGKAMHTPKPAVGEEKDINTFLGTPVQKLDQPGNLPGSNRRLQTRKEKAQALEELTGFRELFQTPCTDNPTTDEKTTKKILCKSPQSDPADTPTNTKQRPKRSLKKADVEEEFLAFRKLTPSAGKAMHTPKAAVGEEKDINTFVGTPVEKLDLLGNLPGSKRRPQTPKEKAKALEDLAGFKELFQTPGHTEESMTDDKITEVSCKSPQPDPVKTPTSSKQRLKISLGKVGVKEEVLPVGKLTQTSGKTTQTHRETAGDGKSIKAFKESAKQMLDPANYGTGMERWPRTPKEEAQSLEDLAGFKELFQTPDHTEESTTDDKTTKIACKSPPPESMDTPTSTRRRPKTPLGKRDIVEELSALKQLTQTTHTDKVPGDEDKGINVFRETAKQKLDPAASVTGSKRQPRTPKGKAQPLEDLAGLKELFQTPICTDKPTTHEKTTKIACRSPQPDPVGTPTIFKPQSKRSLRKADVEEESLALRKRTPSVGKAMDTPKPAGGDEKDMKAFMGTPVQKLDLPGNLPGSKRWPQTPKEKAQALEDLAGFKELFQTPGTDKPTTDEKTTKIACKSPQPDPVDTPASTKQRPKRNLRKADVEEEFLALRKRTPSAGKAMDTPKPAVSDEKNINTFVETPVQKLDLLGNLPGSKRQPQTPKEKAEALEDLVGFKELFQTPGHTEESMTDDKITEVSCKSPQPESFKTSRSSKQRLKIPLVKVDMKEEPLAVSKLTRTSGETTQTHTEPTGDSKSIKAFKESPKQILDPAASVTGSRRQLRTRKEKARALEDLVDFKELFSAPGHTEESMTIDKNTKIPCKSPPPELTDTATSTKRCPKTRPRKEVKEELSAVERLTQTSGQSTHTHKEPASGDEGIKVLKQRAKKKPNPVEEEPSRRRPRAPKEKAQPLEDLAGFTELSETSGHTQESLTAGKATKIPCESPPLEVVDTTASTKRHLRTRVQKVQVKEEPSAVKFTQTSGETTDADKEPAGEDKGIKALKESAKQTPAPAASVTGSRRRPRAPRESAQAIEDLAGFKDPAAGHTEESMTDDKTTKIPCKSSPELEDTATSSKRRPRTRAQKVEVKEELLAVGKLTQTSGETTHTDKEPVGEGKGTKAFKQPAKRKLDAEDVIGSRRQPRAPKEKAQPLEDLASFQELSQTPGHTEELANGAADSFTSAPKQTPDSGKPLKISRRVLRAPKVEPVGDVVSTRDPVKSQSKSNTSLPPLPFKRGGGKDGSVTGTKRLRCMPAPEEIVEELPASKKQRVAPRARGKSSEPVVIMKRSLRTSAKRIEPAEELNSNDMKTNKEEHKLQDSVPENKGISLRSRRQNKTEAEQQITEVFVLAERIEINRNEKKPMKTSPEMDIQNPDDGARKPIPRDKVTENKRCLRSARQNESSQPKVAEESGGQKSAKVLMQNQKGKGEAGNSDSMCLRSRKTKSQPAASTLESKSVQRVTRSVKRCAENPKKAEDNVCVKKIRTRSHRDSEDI
UniProt Q70IA6: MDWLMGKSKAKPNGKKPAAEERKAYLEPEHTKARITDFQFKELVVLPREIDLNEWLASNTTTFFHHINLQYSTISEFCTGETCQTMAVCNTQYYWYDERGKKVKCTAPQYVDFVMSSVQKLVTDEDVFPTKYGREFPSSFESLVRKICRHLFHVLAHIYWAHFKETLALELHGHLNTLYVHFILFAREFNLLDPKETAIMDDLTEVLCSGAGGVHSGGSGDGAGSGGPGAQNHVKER

Some of the results follow.

Common to all, as to experiment: log2 fold change, soluble protein after heating vs DMSO (PISA); higher = thermal stabilisation; K562 lysate, 10 uM; active = over 0.2 and 3.5 SD of the protein, either way, in both replicates (recomputed)
Compound in one assay: CN1CC[C@H](c2c(O)cc(O)c3c(=O)cc(-c4ccccc4Cl)oc23)[C@H](O)C1 [alvocidib]
In outline:
(§1)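 Log-two fold change in thermal stability relative to solvent controls is reported from duplicates. For each sample, crude K562 extract from dounce-homogenised pellets in PBS pH 7.4 with 1 mM MgCl2, at 1 mg/mL protein, was treated with 10 μM compound for 30 min. Aliquots heated for 3 min across 48°C-58°C were pooled, brought to 0.5% NP-40 at 4°C and cleared at 21,000xg for 90 min. The supernatant was quantified by TMTpro 16plex LC-MS/MS with channel sums equalised.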

Compound in another assay: CN1CCc2c(c3ccccc3n2Cc2ccc(C(=O)NO)cc2)C1 [Tubastatin A]
In outline:
as §1

Compound in assay [1]: CNC(=O)C1=CC=CC=C1NC2=NC(=NC=C2Cl)NC3=C(C=C(C=C3)N4CCOCC4)OC
In outline: as §1

Compound in another assay: CNC(=O)c1ccc(Nc2ncc(C(F)(F)F)c(NCc3nccnc3N(C)S(C)(=O)=O)n2)cc1 [defactinib]
In outline: as §1

Compound in assay [2]: CNc1nc(-c2ccc3c(N)n[nH]c3c2)cc(N2C[C@@H](C(=O)NC3CCCCC3)CC[C@H]2C)n1
In outline:
as §1

Compound in the next assay: COC(=O)N[C@@H](C)CNc1nccc(-c2cn(C(C)C)nc2-c2cc(Cl)cc(NS(C)(=O)=O)c2F)n1 [encorafenib]
In outline: as §1

Compound in assay [3]: COC(=O)[C@H](CCSC)NC(=O)C1=C(C=C(C=C1)NC[C@H](CS)N)C2=CC=CC=C2
In outline:
as §1

Compound in the next assay: COc1cc(Nc2ncc3c(n2)-c2ccc(Cl)cc2C(c2c(F)cccc2OC)=NC3)ccc1C(=O)O [alisertib]
The method in brief:
as §1

Compound in assay [4]: COc1cc2nc(-c3cc(F)ccc3O)nc(N[C@@H]3CNC[C@H]3C(C)(C)O)c2cc1OC
In outline: as §1

Compound in the next assay: COc1cc2ncnc(Nc3ccc(F)c(Cl)c3)c2cc1OCCCN1CCOCC1 [gefitinib]
The method in brief: as §1

For the target MMUT (UniProt P22033), the log2 fold change was inactive: -0.023 with alvocidib; inactive: 0.001 with Tubastatin A; inactive: -0.012 in [1]; inactive: -0.003 with defactinib; inactive: -0.038 in assay [2]; inactive: 0.024 with encorafenib. The log2 fold change was inactive: -0.04 in assay [3], inactive: 0.014 with alisertib, inactive: 0.004 in assay [4] and inactive: -0.005 in the assay with gefitinib.

For the target MLEC (UniProt Q14165), the log2 fold change in the assay with alvocidib is inactive: 0.004; with Tubastatin A it was inactive: 0.036; in assay [1] it was inactive: 0.005; in the assay with defactinib, inactive: -0.004; in [2] it was inactive: -0.073; with encorafenib, inactive: 0. Moreover, the log2 fold change in [3] was inactive: -0.023; with alisertib, inactive: 0.024; in [4], inactive: 0.011; in the assay with gefitinib, inactive: -0.002.

As to MMTAG2 (UniProt Q9BU76), the log2 fold change is inactive: -0.001 with alvocidib; inactive: -0.024 in the assay with Tubastatin A; inactive: -0.036 in assay [1]; inactive: 0.033 with defactinib; inactive: 0.049 in [2]; inactive: 0.025 in the assay with encorafenib. Besides, the log2 fold change in assay [3] is inactive: 0.017; with alisertib, inactive: 0.025; in assay [4], inactive: -0.014; with gefitinib, inactive: 0.021.

As for MPDZ (UniProt O75970), the log2 fold change in the assay with alvocidib is inactive: 0.028; with Tubastatin A, inactive: 0.117; in assay [1] it was inactive: 0.236; with defactinib it was inactive: 0.053; in assay [2] it was inactive: 0.099; with encorafenib, inactive: -0.091. In addition, the log2 fold change is inactive: -0.032 in assay [3], inactive: -0.167 with alisertib, inactive: -0.114 in [4] and inactive: 0.228 with gefitinib.

With MOSPD2 (UniProt Q8NHP6), the log2 fold change with alvocidib is inactive: -0.028; with Tubastatin A, inactive: -0.034; in assay [1], inactive: -0.03; with defactinib, inactive: 0.11; in assay [2], inactive: -0.015; with encorafenib, inactive: 0.053. The log2 fold change is inactive: -0.026 in assay [3], inactive: 0.125 in the assay with alisertib, inactive: -0.027 in [4] and inactive: -0.039 with gefitinib.

Turning to MRPL12 (UniProt P52815), the log2 fold change with alvocidib is inactive: 0.066; in the assay with Tubastatin A, inactive: 0.117; in assay [1], inactive: 0.06; in the assay with defactinib, inactive: 0.096; in assay [2], inactive: 0.037; with encorafenib, inactive: 0.003. In addition, the log2 fold change in assay [3] is inactive: -0.079; in the assay with alisertib, inactive: 0.115; in [4], inactive: -0.01; in the assay with gefitinib, inactive: -0.153.

Turning to MICB, A0A140T979, the log2 fold change was inactive: 0.01 with alvocidib; inactive: -0.005 with Tubastatin A; inactive: -0.09 in [1]; inactive: 0.021 in the assay with defactinib; inactive: 0.084 in [2]; inactive: -0.027 in the assay with encorafenib. Moreover, the log2 fold change in [3] was active: -0.506; in the assay with alisertib it was inactive: -0.043; in [4], active: 0.804; in the assay with gefitinib, inactive: -0.012.

Consider MPP1 (UniProt Q00013), for which the log2 fold change was inactive: -0.01 with alvocidib; inactive: -0.01 with Tubastatin A; inactive: -0.007 in assay [1]; inactive: -0.002 with defactinib; inactive: 0.01 in [2]; inactive: -0.015 with encorafenib. Also, the log2 fold change was inactive: 0.011 in [3], inactive: -0.008 in the assay with alisertib, inactive: -0.007 in assay [4] and inactive: 0 with gefitinib.

MIEF1 (UniProt Q9NQG6): the log2 fold change is inactive: 0.021 in the assay with alvocidib; inactive: 0 with Tubastatin A; inactive: -0.019 in assay [1]; inactive: -0.017 in the assay with defactinib; inactive: -0.041 in assay [2]; inactive: 0.047 with encorafenib. The log2 fold change in assay [3] is inactive: 0.006; with alisertib, inactive: -0.105; in assay [4], inactive: -0.036; with gefitinib, inactive: 0.024.

As to MIOS (UniProt Q9NXC5), the log2 fold change was inactive: -0.023 with alvocidib; inactive: -0.036 with Tubastatin A; inactive: -0.018 in assay [1]; inactive: -0.003 with defactinib; inactive: -0.029 in assay [2]; inactive: 0.015 with encorafenib. Further, the log2 fold change was inactive: -0.021 in assay [3], inactive: 0.006 with alisertib, inactive: 0.007 in assay [4] and inactive: 0.043 with gefitinib.

With MKI67 (UniProt P46013), the log2 fold change with alvocidib is inactive: -0.041; with Tubastatin A, inactive: -0.022; in assay [1], inactive: 0.027; with defactinib it was inactive: -0.003; in assay [2], inactive: 0.028; with encorafenib, inactive: 0.033. Further, the log2 fold change is inactive: -0.013 in assay [3], inactive: 0.007 with alisertib, inactive: 0.006 in assay [4] and inactive: -0.002 in the assay with gefitinib.

Consider MIA3 (UniProt Q5JRA6), for which the log2 fold change in the assay with alvocidib was inactive: -0.006; with Tubastatin A, inactive: -0.076; in assay [1], inactive: 0.003; in the assay with defactinib it was inactive: 0.001; in [2], inactive: -0.005; in the assay with encorafenib it was inactive: 0.038. Moreover, the log2 fold change in assay [3] is inactive: -0.119; in the assay with alisertib, inactive: -0.014; in assay [4], inactive: 0.057; with gefitinib, inactive: 0.003.

Regarding MOB2 isoform 3 (UniProt Q70IA6), the log2 fold change with alvocidib is inactive: 0.007; with Tubastatin A, inactive: -0.036; in [1] it was inactive: 0.112; with defactinib it was inactive: 0.062; in [2], inactive: -0.008; with encorafenib, inactive: 0.088. Moreover, the log2 fold change is inactive: 0.083 in [3], inactive: -0.014 in the assay with alisertib, inactive: 0.071 in [4] and inactive: -0.016 with gefitinib.
